Measurements: article PMC8973626
No constants are given. Whether binding was seen depends on the method and setting. In cells and extracts the contact can be indirect. Some binding calls cover weakened binding; strength is not graded here.

Molecular target: T1, receptor interacting protein 140 (RIP140) (human (endogenous in HPMECs)) (UniProt P48552)
T1 sequence: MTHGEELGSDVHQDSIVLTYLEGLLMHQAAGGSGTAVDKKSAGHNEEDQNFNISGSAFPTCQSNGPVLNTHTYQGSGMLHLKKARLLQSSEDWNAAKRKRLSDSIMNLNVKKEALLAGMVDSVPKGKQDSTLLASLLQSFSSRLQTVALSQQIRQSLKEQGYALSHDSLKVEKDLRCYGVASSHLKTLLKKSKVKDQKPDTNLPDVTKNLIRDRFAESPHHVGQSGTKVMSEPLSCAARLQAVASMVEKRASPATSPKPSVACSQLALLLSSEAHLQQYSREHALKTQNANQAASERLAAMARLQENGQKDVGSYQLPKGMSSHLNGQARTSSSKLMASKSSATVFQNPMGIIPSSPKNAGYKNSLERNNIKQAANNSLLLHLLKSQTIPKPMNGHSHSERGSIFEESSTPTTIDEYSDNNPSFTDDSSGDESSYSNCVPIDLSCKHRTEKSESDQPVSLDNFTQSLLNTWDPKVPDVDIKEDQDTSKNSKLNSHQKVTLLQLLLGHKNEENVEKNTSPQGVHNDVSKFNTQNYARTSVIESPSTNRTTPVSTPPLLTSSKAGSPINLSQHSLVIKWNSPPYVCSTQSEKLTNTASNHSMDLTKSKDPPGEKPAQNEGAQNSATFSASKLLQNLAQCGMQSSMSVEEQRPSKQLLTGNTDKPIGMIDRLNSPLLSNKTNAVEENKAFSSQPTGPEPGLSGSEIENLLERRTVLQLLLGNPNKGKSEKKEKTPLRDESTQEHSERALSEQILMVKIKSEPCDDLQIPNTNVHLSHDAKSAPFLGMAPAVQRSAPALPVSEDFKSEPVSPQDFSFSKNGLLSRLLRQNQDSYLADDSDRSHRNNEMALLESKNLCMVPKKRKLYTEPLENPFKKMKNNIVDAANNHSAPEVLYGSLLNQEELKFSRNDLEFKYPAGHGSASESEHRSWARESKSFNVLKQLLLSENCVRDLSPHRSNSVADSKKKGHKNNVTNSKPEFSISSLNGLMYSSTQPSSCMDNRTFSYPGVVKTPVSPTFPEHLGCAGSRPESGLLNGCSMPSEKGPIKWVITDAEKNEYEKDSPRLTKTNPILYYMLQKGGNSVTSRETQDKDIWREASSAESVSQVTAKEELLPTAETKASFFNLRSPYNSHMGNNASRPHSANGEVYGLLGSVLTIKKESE
Experiment: co-IP; lysate of treated HPMECs; 1 ug of corresponding antibody and protein A/G-beads, 4°C overnight; eluted proteins analysed by Western blotting

## C-terminal binding protein 2 (CTBP2) (from UniProt P56545 1-445)
  binding: binds
